Data as given in publication PMC10164956.
Read-outs that look alike come from different tables or passages of the source. Results are given in words; binding and its absence hold for the method and conditions named. In cells and extracts the contact can be indirect. Some results given as binding are weak or reduced against the parent protein; the word gives no strength. Each block holds one molecule with its values, some of them ahead of it.

Sequences of proteins named here, by UniProt entry; tags and fusion partners are left off.
UniProt Q9CQJ4: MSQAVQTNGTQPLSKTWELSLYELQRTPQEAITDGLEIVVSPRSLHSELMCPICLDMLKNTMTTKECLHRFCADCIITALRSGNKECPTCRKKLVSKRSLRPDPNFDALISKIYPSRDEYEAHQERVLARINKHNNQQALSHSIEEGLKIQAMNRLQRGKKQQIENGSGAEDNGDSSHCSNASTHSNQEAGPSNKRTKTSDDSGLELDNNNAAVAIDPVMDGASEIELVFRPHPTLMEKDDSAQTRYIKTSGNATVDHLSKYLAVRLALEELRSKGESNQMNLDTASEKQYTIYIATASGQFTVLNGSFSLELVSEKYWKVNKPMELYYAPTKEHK
UniProt Q8BX22: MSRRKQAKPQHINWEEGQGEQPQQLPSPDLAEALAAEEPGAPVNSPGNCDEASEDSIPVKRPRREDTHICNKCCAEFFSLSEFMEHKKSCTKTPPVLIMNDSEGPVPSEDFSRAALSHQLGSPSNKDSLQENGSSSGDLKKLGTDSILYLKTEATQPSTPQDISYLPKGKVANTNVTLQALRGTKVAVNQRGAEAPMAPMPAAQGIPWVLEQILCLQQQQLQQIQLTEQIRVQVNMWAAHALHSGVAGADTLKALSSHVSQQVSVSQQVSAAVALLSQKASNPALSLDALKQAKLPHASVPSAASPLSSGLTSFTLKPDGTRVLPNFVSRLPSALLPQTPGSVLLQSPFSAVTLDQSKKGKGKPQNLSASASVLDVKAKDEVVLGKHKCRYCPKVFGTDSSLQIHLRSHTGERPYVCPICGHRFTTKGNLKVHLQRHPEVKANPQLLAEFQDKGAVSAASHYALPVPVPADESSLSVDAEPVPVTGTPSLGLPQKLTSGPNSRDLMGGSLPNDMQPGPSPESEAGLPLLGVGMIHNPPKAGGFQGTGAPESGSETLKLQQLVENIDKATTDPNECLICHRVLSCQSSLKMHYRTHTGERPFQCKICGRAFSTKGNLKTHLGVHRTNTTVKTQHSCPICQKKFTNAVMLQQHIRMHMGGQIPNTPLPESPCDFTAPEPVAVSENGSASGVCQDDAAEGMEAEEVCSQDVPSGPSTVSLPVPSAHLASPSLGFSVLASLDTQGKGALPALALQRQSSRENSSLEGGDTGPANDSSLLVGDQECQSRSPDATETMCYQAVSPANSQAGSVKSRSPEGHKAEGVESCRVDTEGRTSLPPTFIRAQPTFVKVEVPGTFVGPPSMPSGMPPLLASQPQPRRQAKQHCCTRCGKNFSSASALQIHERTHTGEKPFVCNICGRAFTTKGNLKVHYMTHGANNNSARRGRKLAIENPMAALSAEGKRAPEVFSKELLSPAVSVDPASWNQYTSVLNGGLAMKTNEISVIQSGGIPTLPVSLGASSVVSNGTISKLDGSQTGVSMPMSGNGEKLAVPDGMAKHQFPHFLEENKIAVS

Experiments:
[1] = target: T1, B cell-specific Moloney murine leukemia virus integration site 1 (BMI1) (mouse (endogenous in undifferentiated spermatogonia)) (UniProt P25916); assay: co-IP; endogenous proteins; lysate of mouse undifferentiated spermatogonia (M-PER with protease inhibitors); primary antibody overnight at 4°C, Protein A/G Plus-Agarose 2 h at 4°C; three washes with IP buffer; Western blotting
T1 sequence: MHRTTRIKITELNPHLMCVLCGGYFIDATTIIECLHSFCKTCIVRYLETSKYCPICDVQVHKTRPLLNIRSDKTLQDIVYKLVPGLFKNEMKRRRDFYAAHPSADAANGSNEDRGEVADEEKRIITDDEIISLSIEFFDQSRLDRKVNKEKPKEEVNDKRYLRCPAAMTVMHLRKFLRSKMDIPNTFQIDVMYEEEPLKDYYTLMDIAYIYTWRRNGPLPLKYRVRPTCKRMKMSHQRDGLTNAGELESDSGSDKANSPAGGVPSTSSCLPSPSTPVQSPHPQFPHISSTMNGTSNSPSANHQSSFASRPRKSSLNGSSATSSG

[2] = compound: T2, B cell-specific Moloney murine leukemia virus integration site 1 (BMI1) (mouse (endogenous in undifferentiated spermatogonia)) (UniProt P25916); assay: as above; remark: listed apart in the source
T2 sequence: T1 sequence

binding [1]: binds
Molecule: RNF2 (the core member of PRC1) (from UniProt Q9CQJ4 1-336)

binding [1]: binds
Molecule: Sal-like 4 (SALL4) (from UniProt Q8BX22 1-1067)

binding [2]: binds
B1: PHC1 (protein, UniProt Q64028 1-1010)
chain: METESEQNSSSTNGSSSSGASSRPQIAQMSLYERQAVQALQALQRQPNAAQYFHQFMLQQQLSNAQLHSLAAVQQATIAASRQASSPNSSTAQQQTATTQASMNLATTSAAQLISRSQSVSSPSATTLTQSVLLGNTTSPPLNQSQAQMYLRPQLGNLLQVNRTLGRNVPLASQLILMPNGAVAAVQQEVPPAQSPGVHADADQVQNLAVRNQQASAQGPQMPGSTQKAIPPGASPVSGLSQTSSQALAVAQASSGASGQSLNLSQAGGGSGNSLPGSMGPGGGGQAPGGLGQLPSSGLTGGSCPRKGTGVVQPLPAAQTVTVSQGSQTEAESAAAKKAEADGSGQQSVGMNLTRTATPAPSQTLISSATYTQIQPHSLIQQQQQIHLQQKQVVIQQQIAIHHQQQFQHRQSQLLHTATHLQLAQQQQQQQQQQQQQQQQQQQQQQGTTLTAPQPPQVPPTQQVPPSQSQQQAQTLVVQPMLQSSPLTLPPEPTSKPPIPIQSKPPVAPIKPPQLGAAKMSATQQPPPHIPVQVVGTRQPGSAQAQALGLAQLAAAVPTPRGITGAVQPGQAHLASSPPSSQAAPGALQECPPALAAGMTLAPVQGTAHVVKGGPTASSPVVAQVPAAFYMQSVHLPGKAQTLAVKRKAESEEERDDLSALASVLPTKASPAAESPKVIEEKNSLGEKAEPVASLNANPPNSDLVALAPTPSAPPPTLALVSRQMGDSKPPQAIVKPQILTHIIEGFVIQEGAEPFPVGCSQFLKETKKPLQAGLPTGLNESQPSGPLGGDSPSVELEKKANLLKCEYCGKYAPAEQFRGSKRFCSMTCAKRYNVSCSHQFRLKRKKMKEFQEASYARVRRRGPRRSSSDIARAKIQGKRHRGQEDSSRGSDNSSYDEALSPTSPGPLSVRAGHGERDLGNTITTPSTPELQGINPVFLSSNPSQWSVEEVYEFIASLQGCQEIAEEFRSQEIDGQALLLLKEEHLMSAMNIKLGPALKICAKINVLKET
